From publication PMC8249616
These are yes or no findings as the source states them, for the method shown. Some binding calls cover weakened binding; strength is not graded here.

Chains of the proteins cited; added tags and fusions are not shown. Residues count along the entry.
UniProt P08581, residues 25-927: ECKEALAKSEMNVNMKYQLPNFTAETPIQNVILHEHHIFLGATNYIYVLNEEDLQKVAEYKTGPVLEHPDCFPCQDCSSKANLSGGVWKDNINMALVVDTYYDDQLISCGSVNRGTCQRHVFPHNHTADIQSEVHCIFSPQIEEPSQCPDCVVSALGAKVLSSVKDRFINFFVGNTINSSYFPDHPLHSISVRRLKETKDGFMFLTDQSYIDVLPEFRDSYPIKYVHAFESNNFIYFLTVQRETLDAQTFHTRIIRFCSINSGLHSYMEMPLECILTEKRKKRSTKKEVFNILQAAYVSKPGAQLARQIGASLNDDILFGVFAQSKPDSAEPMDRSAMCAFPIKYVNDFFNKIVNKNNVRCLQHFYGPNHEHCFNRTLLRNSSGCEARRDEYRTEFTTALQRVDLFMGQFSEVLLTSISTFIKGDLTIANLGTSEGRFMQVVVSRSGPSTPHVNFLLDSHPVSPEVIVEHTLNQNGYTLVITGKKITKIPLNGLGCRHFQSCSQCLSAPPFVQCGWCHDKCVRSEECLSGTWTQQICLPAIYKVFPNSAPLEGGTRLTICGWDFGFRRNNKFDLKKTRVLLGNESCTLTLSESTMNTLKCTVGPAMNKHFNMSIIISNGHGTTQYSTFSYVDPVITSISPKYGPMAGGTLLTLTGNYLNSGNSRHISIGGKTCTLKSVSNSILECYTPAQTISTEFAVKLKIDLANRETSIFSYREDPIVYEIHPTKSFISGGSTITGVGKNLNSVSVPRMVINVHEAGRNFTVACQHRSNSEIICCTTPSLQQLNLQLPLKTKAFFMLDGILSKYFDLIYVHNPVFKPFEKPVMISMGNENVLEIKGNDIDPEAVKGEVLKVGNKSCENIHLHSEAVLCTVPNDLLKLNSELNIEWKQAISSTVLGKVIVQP
UniProt P14210, residues 32-728: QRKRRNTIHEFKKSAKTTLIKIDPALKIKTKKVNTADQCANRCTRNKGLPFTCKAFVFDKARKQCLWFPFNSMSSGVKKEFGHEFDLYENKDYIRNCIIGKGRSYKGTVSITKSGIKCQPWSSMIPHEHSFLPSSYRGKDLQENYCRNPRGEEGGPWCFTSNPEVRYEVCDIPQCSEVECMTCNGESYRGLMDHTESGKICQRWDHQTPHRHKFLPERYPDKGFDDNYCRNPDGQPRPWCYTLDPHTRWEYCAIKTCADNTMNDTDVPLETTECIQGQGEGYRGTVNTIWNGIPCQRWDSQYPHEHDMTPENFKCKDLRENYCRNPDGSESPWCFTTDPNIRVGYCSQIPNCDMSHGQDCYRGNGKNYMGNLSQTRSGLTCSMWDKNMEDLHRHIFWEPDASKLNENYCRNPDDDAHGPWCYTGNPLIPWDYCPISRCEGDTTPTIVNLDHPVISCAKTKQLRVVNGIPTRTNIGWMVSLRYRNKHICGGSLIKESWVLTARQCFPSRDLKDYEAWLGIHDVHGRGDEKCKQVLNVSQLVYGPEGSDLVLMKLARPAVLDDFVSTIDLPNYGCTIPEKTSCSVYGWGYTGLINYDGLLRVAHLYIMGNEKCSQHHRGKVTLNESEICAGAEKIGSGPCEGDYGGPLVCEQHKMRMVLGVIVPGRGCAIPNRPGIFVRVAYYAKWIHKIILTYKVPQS

Assays:
[1] = biological target: c-MET extracellular domain (residues 1-927), tags cleaved (human) (UniProt P08581); experiment: SEC; c-MET and HGF in the absence of heparin; both purified
[2] = biological target: full-length human hepatocyte growth factor (HGF), wild type (human) (UniProt P14210); experiment: cryo-EM structure; c-MET927-LZ mixed with HGF and heparin (Tinzaparin sodium) 1:1:4, complex isolated by SEC in 20 mM Hepes pH 7.5, 100 mM NaCl; 2 mM fluorinated Fos-Choline-8 added before freezing; both purified

For “full-length human hepatocyte growth factor (HGF), wild type (from UniProt P14210 32-728) (ligand)”, which binding [1] is on record?
Its binding is “no binding (condition: in the absence of heparin)”.

And the binding [2]?
The binding was “binds weakly”.
